{"source": "PubChem BioAssay AID602196, INSERM | 2012", "aim": "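Knock-downs that protect lung cancer cells from cisplatin or sensitise them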", "cells": "human A549 lung cancer cells", "reagents": "siRNA pair against human genes", "duration": "48 h transfection before cisplatin; time from cisplatin to read-out not stated", "conditions": "cisplatin at a dose killing half of control-siRNA cells; exact dose and duration not given", "detection": "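Cisplatin cell death as a shift from the 50% death seen with control siRNA; siRNAs toxic or growth-blocking alone scored 0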", "direction": "two-siRNA summed score (-2 to +2): higher = both siRNAs protect from cisplatin killing; -2 means both sensitise; mean protection from cisplatin (shift in death): higher = protection from cisplatin killing", "call rule": "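Each siRNA scores 0 if harmful alone by LDH or WST-1, otherwise +1 if it reduces and -1 if it increases cisplatin killing; a gene is active when both siRNAs agree (sum +2 or -2)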", "calls": "active = both siRNAs shift cisplatin killing the same way; inactive = no consistent shift, or siRNA harmful alone", "note": "Here is one part, drawn at random, of about 23,000 reagents tested. 455 of them (2%) were called active. 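Active includes both protection and sensitisation; some change values fall well beyond the stated -50 to +50 range.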 Further read-outs or replicates are left out here. Not given: the amount of reagent."}
{"gene": "BTNL9", "two-siRNA summed score (-2 to +2)": 0, "mean protection from cisplatin (shift in death) (%)": 8.4, "call": "inactive"}
{"gene": "BLTP3B", "two-siRNA summed score (-2 to +2)": 0, "mean protection from cisplatin (shift in death) (%)": 5.6, "call": "inactive"}
{"gene": "ACD", "two-siRNA summed score (-2 to +2)": 0, "mean protection from cisplatin (shift in death) (%)": 8.3, "call": "inactive"}
{"gene": "HAVCR2", "two-siRNA summed score (-2 to +2)": 0, "mean protection from cisplatin (shift in death) (%)": 2.1, "call": "inactive"}
{"gene": "AKT3", "two-siRNA summed score (-2 to +2)": 1, "mean protection from cisplatin (shift in death) (%)": 13, "call": "inactive"}
{"gene": "SLC12A2", "two-siRNA summed score (-2 to +2)": 0, "mean protection from cisplatin (shift in death) (%)": -5.9, "call": "inactive"}
{"gene": "FOCAD", "two-siRNA summed score (-2 to +2)": 0, "mean protection from cisplatin (shift in death) (%)": 5.5, "call": "inactive"}
{"gene": "CASQ1", "two-siRNA summed score (-2 to +2)": 1, "mean protection from cisplatin (shift in death) (%)": 6.8, "call": "inactive"}
{"gene": "FAM194C", "two-siRNA summed score (-2 to +2)": 1, "mean protection from cisplatin (shift in death) (%)": 8.8, "call": "inactive"}
{"gene": "OGFOD3", "two-siRNA summed score (-2 to +2)": 1, "mean protection from cisplatin (shift in death) (%)": 14.9, "call": "inactive"}
{"gene": "VPS13B", "two-siRNA summed score (-2 to +2)": 1, "mean protection from cisplatin (shift in death) (%)": 13.8, "call": "inactive"}
{"gene": "GPR148", "two-siRNA summed score (-2 to +2)": 1, "mean protection from cisplatin (shift in death) (%)": 14.8, "call": "inactive"}
{"gene": "GRM5", "two-siRNA summed score (-2 to +2)": 0, "mean protection from cisplatin (shift in death) (%)": -0.2, "call": "inactive"}

Part of the list above, reformatted.
| gene | two-siRNA summed score (-2 to +2) | mean protection from cisplatin (shift in death) (%) | call |
| --- | --- | --- | --- |
| HAVCR2 | 0 | 2.1 | inactive |
| AKT3 | 1 | 13 | inactive |
| SLC12A2 | 0 | -5.9 | inactive |
| FOCAD | 0 | 5.5 | inactive |

More records:
{"gene": "POP7", "two-siRNA summed score (-2 to +2)": 0, "mean protection from cisplatin (shift in death) (%)": 13.3, "call": "inactive"}
{"gene": "CABP2", "two-siRNA summed score (-2 to +2)": 0, "mean protection from cisplatin (shift in death) (%)": -1.3, "call": "inactive"}
{"gene": "COL4A3", "two-siRNA summed score (-2 to +2)": 1, "mean protection from cisplatin (shift in death) (%)": 16.9, "call": "inactive"}
{"gene": "XYLB", "two-siRNA summed score (-2 to +2)": 1, "mean protection from cisplatin (shift in death) (%)": 17.5, "call": "inactive"}
{"gene": "MAP3K12", "two-siRNA summed score (-2 to +2)": 1, "mean protection from cisplatin (shift in death) (%)": 5.7, "call": "inactive"}
{"gene": "LINC01018", "two-siRNA summed score (-2 to +2)": 0, "mean protection from cisplatin (shift in death) (%)": 8.7, "call": "inactive"}
{"gene": "LOC439985", "two-siRNA summed score (-2 to +2)": 0, "mean protection from cisplatin (shift in death) (%)": 6, "call": "inactive"}
{"gene": "GNG11", "two-siRNA summed score (-2 to +2)": 0, "mean protection from cisplatin (shift in death) (%)": -14.2, "call": "inactive"}
{"gene": "SPESP1", "two-siRNA summed score (-2 to +2)": 0, "mean protection from cisplatin (shift in death) (%)": -1.1, "call": "inactive"}
{"gene": "MYL6B", "two-siRNA summed score (-2 to +2)": 0, "mean protection from cisplatin (shift in death) (%)": 14.8, "call": "inactive"}
{"gene": "ESR2", "two-siRNA summed score (-2 to +2)": 0, "mean protection from cisplatin (shift in death) (%)": -5.3, "call": "inactive"}
{"gene": "RPS19", "two-siRNA summed score (-2 to +2)": 0, "mean protection from cisplatin (shift in death) (%)": 15.1, "call": "inactive"}
{"gene": "LOC399978", "two-siRNA summed score (-2 to +2)": 0, "mean protection from cisplatin (shift in death) (%)": -1, "call": "inactive"}
{"gene": "DIRC1", "two-siRNA summed score (-2 to +2)": 0, "mean protection from cisplatin (shift in death) (%)": 7.1, "call": "inactive"}
{"gene": "MORF4", "two-siRNA summed score (-2 to +2)": 0, "mean protection from cisplatin (shift in death) (%)": -0.6, "call": "inactive"}
{"gene": "TMPRSS7", "two-siRNA summed score (-2 to +2)": 0, "mean protection from cisplatin (shift in death) (%)": 2.7, "call": "inactive"}
{"gene": "CLDN3", "two-siRNA summed score (-2 to +2)": -1, "mean protection from cisplatin (shift in death) (%)": -30.2, "call": "inactive"}
{"gene": "RAB2A", "two-siRNA summed score (-2 to +2)": 1, "mean protection from cisplatin (shift in death) (%)": -2.5, "call": "inactive"}
{"gene": "IK", "two-siRNA summed score (-2 to +2)": 0, "mean protection from cisplatin (shift in death) (%)": -23, "call": "inactive"}
{"gene": "HIVEP1", "two-siRNA summed score (-2 to +2)": 0, "mean protection from cisplatin (shift in death) (%)": 3.9, "call": "inactive"}
{"gene": "AKAP9", "two-siRNA summed score (-2 to +2)": 0, "mean protection from cisplatin (shift in death) (%)": 4.1, "call": "inactive"}
{"gene": "LMO4", "two-siRNA summed score (-2 to +2)": 0, "mean protection from cisplatin (shift in death) (%)": 12.2, "call": "inactive"}
{"gene": "CHI3L1", "two-siRNA summed score (-2 to +2)": 0, "mean protection from cisplatin (shift in death) (%)": 1.1, "call": "inactive"}
{"gene": "LRRC37A", "two-siRNA summed score (-2 to +2)": 0, "mean protection from cisplatin (shift in death) (%)": 16.4, "call": "inactive"}
{"gene": "AOC2", "two-siRNA summed score (-2 to +2)": 1, "mean protection from cisplatin (shift in death) (%)": 16, "call": "inactive"}
{"gene": "GTF2H2", "two-siRNA summed score (-2 to +2)": 0, "mean protection from cisplatin (shift in death) (%)": -1, "call": "inactive"}
{"gene": "LOC442598", "two-siRNA summed score (-2 to +2)": 0, "mean protection from cisplatin (shift in death) (%)": 10.5, "call": "inactive"}
